The list shows a part of the results.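 The calls were made as follows: active = dose-dependent thermal stabilisation significant by F-test of dose-response against flat model at 10% FDR; inactive = not significant.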
compound: Nc1nc2c(ncn2[C@@H]2O[C@H](COP(=O)(O)OP(=O)(O)OP(=O)(O)O)[C@@H](O)[C@H]2O)c(=O)[nH]1; test: dose-dependent thermal stabilisation call (2D-TPP, DLPTP, 10% FDR) (binary (1 = stabilised)); higher = stabilised by the compound; details: system: Jurkat gel-filtered lysate; concentration range 1-500 µM

Amino acid sequences for entries named in this document (tags omitted). A change or cut given only in a name is not applied to a line headed by its entry.
UniProt Q9BVQ7: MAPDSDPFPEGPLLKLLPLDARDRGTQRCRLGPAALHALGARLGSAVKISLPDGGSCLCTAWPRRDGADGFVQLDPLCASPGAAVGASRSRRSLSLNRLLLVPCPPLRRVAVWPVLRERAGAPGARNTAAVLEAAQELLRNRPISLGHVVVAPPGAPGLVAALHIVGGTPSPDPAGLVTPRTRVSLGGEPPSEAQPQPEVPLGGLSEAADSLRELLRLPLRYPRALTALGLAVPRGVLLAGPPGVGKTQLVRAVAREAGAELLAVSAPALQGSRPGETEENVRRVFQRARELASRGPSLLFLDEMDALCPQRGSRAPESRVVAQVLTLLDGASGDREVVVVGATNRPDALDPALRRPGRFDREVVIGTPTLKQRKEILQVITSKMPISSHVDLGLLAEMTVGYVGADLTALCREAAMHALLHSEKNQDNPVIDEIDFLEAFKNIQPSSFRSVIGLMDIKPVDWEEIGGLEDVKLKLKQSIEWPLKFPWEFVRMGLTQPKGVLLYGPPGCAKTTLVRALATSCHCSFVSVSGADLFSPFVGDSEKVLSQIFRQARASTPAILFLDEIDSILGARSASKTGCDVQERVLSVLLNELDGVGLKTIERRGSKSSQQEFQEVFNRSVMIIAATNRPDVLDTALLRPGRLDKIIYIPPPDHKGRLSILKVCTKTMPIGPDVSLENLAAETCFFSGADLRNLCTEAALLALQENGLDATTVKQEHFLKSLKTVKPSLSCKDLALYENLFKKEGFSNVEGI
UniProt Q05519: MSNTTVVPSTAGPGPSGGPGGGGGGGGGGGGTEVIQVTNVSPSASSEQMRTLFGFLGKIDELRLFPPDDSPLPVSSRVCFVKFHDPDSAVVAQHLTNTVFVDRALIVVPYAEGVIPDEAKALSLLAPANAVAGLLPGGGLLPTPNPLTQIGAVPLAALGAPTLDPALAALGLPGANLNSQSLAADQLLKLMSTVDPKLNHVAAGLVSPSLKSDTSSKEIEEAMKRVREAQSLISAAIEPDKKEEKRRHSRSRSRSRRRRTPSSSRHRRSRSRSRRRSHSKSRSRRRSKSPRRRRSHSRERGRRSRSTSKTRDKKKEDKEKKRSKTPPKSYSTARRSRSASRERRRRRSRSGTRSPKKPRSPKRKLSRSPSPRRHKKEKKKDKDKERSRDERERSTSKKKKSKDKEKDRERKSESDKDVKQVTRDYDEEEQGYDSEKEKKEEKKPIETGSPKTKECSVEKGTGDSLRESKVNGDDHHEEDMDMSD
UniProt P62318, whole entry: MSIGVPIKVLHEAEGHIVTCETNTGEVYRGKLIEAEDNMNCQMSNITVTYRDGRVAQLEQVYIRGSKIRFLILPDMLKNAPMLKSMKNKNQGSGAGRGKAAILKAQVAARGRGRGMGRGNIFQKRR
UniProt O60232: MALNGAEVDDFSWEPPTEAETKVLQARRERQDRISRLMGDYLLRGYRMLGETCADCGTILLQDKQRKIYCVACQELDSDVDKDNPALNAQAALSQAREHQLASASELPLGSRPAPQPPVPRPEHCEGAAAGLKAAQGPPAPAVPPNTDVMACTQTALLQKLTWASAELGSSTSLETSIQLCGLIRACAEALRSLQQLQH
UniProt Q86US8: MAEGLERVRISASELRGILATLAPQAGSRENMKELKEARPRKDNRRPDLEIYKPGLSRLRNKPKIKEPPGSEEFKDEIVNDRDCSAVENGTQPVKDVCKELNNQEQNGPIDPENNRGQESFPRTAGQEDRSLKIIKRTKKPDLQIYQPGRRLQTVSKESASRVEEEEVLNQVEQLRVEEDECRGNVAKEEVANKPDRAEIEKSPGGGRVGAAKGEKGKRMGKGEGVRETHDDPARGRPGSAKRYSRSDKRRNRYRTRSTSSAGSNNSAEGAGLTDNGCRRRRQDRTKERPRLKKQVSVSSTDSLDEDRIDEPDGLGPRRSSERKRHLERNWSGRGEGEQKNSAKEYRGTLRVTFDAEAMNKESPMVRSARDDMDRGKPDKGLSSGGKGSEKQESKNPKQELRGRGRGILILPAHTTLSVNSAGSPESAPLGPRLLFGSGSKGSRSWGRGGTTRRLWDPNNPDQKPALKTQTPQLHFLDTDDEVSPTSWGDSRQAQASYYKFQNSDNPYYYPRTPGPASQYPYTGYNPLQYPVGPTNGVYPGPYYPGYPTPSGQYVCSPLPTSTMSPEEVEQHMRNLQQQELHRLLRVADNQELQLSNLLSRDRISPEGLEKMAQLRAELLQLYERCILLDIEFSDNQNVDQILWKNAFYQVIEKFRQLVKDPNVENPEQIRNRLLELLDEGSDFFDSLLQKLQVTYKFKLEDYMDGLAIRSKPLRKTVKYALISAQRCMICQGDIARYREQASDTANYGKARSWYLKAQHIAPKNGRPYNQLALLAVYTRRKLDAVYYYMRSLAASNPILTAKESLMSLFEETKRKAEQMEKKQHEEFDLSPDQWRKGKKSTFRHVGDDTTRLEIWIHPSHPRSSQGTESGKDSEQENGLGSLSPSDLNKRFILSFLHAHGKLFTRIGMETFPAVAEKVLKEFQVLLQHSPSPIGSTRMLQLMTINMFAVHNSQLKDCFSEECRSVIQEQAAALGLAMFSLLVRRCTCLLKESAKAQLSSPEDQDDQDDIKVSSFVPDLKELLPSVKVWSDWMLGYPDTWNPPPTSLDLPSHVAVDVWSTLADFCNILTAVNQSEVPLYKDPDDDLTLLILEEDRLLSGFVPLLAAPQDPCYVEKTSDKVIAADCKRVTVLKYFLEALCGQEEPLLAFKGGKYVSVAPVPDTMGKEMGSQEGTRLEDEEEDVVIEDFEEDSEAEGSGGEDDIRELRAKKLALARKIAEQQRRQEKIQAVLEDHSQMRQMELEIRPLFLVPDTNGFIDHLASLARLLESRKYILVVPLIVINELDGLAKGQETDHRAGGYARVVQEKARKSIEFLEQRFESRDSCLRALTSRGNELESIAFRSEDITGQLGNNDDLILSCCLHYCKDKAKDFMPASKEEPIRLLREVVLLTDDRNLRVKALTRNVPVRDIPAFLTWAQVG
UniProt Q5M775: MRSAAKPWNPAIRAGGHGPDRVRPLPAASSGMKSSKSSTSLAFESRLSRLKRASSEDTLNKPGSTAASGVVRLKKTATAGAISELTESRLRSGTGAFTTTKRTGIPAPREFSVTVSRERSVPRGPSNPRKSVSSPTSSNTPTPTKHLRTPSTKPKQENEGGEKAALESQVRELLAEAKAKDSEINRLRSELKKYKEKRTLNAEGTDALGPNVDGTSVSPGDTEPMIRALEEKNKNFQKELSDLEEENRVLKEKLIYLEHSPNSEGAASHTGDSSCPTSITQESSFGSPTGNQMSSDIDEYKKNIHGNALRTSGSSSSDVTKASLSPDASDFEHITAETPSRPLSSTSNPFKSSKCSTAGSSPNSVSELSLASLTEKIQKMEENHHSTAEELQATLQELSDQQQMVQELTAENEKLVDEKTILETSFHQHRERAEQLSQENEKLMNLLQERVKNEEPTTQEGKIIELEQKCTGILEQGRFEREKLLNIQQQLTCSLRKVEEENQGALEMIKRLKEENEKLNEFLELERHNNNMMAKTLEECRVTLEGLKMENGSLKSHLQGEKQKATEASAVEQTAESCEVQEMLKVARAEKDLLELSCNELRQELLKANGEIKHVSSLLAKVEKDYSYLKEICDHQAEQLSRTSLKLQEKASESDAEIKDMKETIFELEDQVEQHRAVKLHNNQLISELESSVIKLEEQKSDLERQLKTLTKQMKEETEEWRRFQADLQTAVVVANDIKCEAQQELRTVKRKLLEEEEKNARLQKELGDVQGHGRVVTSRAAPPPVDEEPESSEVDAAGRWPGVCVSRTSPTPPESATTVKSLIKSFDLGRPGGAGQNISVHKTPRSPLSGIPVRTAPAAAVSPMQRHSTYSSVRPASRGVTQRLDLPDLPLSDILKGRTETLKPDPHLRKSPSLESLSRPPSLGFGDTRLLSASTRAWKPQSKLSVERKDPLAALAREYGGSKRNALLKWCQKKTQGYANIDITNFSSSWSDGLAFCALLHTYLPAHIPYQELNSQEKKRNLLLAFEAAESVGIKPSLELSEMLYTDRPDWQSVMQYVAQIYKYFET
UniProt O75940: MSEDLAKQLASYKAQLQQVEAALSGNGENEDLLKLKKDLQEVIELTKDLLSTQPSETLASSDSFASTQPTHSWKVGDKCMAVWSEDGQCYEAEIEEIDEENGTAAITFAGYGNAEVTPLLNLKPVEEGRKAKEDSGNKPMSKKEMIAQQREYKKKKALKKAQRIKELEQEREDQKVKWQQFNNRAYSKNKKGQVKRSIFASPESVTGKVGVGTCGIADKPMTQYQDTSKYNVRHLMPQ
UniProt O95425, whole entry: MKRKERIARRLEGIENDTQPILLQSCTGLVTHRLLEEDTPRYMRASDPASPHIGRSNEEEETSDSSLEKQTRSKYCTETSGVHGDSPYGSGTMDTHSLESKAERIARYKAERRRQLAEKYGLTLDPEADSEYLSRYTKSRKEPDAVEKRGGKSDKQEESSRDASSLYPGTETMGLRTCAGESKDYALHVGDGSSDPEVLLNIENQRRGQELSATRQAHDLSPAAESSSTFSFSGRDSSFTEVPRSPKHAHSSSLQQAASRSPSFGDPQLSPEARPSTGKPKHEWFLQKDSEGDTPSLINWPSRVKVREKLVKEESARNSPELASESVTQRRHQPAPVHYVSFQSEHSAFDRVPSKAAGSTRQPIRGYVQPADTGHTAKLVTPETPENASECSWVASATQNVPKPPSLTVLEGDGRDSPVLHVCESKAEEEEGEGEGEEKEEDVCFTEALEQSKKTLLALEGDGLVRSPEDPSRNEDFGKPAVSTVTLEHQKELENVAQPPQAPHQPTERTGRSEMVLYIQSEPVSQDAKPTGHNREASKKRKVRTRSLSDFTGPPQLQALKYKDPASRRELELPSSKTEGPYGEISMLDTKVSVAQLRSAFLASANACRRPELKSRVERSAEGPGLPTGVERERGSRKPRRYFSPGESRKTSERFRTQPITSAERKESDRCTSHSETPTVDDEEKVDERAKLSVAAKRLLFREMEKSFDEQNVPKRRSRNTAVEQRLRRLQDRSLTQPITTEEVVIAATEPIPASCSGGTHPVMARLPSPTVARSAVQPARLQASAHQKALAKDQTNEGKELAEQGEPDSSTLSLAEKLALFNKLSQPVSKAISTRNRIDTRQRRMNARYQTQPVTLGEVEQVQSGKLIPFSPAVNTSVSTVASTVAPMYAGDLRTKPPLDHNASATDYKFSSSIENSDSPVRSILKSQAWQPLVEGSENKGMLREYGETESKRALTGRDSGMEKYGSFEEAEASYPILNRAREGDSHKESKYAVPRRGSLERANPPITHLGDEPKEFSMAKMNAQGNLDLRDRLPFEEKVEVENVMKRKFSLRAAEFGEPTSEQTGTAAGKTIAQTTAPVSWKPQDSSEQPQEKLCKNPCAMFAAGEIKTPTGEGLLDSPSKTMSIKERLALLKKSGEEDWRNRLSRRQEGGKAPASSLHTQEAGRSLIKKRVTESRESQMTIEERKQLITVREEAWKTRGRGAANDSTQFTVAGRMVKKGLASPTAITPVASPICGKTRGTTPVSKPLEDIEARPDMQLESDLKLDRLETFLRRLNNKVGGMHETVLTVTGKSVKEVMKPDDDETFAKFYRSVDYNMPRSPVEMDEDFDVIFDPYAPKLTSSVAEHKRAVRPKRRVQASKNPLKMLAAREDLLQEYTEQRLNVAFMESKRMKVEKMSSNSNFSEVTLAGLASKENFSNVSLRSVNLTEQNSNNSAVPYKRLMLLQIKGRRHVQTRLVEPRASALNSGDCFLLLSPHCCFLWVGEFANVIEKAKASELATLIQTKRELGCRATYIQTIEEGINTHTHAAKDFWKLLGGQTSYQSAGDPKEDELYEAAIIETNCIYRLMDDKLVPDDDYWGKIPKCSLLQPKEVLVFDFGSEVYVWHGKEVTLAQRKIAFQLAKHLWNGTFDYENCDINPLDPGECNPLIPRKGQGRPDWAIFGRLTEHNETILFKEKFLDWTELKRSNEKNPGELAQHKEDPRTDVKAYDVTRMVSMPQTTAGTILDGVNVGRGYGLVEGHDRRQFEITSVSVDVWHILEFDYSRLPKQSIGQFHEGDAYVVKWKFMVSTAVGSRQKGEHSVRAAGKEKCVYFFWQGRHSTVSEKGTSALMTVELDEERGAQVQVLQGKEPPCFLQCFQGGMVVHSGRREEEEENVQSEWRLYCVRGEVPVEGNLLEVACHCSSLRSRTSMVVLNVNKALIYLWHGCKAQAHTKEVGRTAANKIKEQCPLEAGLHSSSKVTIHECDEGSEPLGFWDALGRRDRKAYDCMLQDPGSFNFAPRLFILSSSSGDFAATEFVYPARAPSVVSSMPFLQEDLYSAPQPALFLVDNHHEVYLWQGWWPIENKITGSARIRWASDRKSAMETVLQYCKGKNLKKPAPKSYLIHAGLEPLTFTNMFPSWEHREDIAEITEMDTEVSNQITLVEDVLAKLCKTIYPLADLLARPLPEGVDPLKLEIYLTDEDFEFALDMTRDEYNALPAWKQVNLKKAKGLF

| Target | dose-dependent thermal stabilisation call |
| --- | --- |
| SNX27 (UniProt Q96L92) | active: 1 |
| SRSF7 (UniProt Q16629) | active: 1 |
| SKIV2L2 (UniProt P42285) | inactive: 0 |
| SRF (UniProt P11831) | inactive: 0 |
| SPATA5L1 (UniProt Q9BVQ7) | active: 1 |
| SMAP2 (UniProt Q8WU79) | inactive: 0 |
| SPAG7 (UniProt O75391) | inactive: 0 |
| SRSF11 (UniProt Q05519) | inactive: 0 |
| SNRPD3 (UniProt P62318) | inactive: 0 |
| SRA1 (UniProt Q9HD15) | inactive: 0 |
| SRRM1 (UniProt Q8IYB3) | active: 1 |
| SREK1 (UniProt Q8WXA9) | inactive: 0 |
| SPTBN1 (UniProt Q01082) | inactive: 0 |
| SSSCA1 (UniProt O60232) | inactive: 0 |
| SLC4A4 (UniProt Q9Y6R1) | inactive: 0 |
| SUMF1 (UniProt Q8NBK3) | inactive: 0 |
| SRP68 (UniProt Q9UHB9) | active: 1 |
| SUDS3 (UniProt Q9H7L9) | inactive: 0 |

| Target | dose-dependent thermal stabilisation call |
| --- | --- |
| SMG6 (UniProt Q86US8) | inactive: 0 |
| SRPRA (UniProt P08240) | active: 1 |
| SYNE2 (UniProt Q8WXH0) | inactive: 0 |
| SPECC1 (UniProt Q5M775) | inactive: 0 |
| SMNDC1 (UniProt O75940) | inactive: 0 |
| SPAST (UniProt Q9UBP0) | active: 1 |
| STAT5B (UniProt P51692) | inactive: 0 |
| SIAH1 (UniProt Q8IUQ4) | inactive: 0 |
| SRP72 (UniProt O76094) | active: 1 |
| SRPK1 (UniProt Q96SB4) | inactive: 0 |
| STAM2 (UniProt O75886) | inactive: 0 |
| SNX16 (UniProt P57768) | inactive: 0 |
| SUPT6H (UniProt Q7KZ85) | inactive: 0 |
| SVIL (UniProt O95425) | inactive: 0 |
| SNW1 (UniProt Q13573) | inactive: 0 |
| SNX17 (UniProt Q15036) | inactive: 0 |
| SRSF10 (UniProt O75494) | inactive: 0 |

Part of the list above, as comma-separated lines:
Target,dose-dependent thermal stabilisation call
SPECC1 (UniProt Q5M775),inactive: 0
SRSF10 (UniProt O75494),inactive: 0

— the supplement of paper PMC7666118
